This is one part of the list. Small differences around the control level are noise.

The chains behind the UniProt entries cited, without tags or fusion partners. Where a name states a change or a piece, a line headed by the entry shows the natural chain unless it says otherwise.
UniProt Q08AD1: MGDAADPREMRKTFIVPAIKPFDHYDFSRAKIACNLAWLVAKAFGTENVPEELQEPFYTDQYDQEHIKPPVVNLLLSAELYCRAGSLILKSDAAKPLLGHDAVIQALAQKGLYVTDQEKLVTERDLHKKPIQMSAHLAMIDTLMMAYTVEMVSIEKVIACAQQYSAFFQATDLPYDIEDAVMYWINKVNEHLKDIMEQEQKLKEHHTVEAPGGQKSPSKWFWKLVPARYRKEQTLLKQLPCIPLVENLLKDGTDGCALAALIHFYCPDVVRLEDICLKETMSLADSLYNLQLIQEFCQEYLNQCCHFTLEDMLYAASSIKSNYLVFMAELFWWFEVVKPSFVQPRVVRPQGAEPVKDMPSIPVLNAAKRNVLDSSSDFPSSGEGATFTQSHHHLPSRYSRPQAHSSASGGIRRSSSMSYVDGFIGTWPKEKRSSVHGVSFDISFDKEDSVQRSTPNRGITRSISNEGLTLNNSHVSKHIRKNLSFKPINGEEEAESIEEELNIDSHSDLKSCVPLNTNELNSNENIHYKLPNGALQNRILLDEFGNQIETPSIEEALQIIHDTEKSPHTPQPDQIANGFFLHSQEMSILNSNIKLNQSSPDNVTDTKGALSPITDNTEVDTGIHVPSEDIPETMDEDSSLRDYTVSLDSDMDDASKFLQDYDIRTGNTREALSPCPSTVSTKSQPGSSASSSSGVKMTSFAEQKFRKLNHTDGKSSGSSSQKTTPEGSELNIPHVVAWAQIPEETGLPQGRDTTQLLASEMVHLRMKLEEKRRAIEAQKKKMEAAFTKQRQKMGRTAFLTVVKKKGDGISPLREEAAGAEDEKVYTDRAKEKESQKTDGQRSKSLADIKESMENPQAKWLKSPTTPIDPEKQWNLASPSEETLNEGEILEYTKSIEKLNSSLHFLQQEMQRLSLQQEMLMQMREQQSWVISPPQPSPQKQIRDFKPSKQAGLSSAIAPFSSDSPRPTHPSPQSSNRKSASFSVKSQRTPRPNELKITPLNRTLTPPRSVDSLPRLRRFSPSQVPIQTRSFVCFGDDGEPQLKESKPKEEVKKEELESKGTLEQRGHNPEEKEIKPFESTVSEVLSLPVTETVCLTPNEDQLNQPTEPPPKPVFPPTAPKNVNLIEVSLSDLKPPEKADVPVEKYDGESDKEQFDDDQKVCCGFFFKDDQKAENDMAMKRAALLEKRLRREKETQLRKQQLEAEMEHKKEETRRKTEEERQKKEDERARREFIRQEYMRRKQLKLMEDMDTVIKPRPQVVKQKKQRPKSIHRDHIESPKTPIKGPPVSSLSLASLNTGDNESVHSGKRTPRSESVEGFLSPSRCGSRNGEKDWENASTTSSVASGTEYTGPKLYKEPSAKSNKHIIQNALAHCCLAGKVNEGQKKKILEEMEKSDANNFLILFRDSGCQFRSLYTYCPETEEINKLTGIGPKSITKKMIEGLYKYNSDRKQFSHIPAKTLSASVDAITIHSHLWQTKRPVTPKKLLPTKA
UniProt Q06587: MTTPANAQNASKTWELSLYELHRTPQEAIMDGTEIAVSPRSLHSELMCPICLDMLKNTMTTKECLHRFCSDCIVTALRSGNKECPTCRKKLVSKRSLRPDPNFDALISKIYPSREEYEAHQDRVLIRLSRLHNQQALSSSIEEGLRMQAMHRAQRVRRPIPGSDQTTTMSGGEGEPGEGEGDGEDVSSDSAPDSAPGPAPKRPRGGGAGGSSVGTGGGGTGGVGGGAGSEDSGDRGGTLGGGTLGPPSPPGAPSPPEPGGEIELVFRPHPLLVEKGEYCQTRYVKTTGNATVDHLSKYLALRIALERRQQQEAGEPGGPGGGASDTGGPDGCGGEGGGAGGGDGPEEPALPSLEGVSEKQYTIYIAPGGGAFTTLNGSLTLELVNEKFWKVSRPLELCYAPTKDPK
UniProt Q07817, whole entry: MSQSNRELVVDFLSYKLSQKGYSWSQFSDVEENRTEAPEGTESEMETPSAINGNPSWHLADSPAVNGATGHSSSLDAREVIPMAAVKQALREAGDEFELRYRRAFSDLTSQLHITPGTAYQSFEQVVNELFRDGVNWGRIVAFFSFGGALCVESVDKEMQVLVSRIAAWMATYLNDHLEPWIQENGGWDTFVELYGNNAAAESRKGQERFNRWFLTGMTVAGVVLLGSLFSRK
UniProt P85299, whole entry: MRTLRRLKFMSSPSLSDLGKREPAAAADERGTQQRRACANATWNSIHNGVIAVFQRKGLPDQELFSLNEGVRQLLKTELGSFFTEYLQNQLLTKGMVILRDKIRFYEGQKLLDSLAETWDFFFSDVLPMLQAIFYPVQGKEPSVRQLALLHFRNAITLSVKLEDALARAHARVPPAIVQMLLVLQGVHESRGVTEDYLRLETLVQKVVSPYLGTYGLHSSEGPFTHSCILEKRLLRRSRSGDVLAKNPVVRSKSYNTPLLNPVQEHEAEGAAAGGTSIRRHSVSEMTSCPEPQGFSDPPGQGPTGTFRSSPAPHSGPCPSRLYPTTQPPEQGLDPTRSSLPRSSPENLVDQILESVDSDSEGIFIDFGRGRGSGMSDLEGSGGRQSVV
UniProt Q12968: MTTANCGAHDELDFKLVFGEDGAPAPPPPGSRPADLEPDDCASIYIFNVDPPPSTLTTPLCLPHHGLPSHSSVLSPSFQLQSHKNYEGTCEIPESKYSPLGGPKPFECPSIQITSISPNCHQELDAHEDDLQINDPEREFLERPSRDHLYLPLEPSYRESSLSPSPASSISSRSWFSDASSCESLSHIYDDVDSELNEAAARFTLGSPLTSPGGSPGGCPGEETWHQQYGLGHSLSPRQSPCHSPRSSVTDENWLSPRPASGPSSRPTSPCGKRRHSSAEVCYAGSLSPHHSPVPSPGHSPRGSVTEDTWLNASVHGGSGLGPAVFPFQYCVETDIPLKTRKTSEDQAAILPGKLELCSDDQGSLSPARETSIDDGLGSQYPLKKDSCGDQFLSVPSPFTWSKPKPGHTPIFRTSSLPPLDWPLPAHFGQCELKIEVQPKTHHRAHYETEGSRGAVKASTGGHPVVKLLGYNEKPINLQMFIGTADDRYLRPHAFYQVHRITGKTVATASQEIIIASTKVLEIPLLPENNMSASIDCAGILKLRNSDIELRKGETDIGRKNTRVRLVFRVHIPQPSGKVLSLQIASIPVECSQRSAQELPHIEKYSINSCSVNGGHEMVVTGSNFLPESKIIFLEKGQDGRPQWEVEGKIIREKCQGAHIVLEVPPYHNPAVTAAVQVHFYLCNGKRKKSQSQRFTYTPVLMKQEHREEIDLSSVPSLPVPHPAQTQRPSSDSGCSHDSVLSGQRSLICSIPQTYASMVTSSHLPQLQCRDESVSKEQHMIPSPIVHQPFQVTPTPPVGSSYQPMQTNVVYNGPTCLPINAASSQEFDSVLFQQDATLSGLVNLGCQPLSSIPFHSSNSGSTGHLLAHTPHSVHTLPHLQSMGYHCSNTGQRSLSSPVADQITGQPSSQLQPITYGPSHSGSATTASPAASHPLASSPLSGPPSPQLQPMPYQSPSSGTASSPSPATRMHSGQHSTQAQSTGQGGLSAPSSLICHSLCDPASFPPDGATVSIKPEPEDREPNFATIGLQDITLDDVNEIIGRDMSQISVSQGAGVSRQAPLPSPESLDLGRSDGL
UniProt P84095: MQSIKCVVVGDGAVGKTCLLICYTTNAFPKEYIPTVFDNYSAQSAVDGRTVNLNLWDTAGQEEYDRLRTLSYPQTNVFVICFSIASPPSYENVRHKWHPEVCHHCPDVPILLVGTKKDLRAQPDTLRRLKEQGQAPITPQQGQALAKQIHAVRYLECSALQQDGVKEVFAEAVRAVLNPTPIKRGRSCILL
UniProt P83916, whole entry, looked up: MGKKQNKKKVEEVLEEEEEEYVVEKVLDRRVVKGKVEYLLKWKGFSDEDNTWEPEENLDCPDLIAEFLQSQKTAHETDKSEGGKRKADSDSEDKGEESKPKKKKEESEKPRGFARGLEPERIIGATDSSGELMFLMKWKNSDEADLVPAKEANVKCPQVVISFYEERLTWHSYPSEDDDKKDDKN
UniProt P98177: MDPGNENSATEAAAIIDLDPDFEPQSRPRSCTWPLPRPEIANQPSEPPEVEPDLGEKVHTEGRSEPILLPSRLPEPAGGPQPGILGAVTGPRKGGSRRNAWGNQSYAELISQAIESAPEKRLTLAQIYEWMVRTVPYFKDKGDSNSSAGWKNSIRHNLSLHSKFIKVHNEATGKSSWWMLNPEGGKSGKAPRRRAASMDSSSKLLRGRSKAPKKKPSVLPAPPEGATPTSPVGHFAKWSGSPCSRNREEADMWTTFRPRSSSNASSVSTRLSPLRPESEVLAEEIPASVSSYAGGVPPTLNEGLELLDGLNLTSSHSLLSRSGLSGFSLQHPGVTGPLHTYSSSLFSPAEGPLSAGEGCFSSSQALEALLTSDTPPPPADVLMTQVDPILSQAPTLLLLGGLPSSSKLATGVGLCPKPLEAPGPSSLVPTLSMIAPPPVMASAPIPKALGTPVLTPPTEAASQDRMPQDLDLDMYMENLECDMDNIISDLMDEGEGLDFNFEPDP
UniProt Q01469, whole entry: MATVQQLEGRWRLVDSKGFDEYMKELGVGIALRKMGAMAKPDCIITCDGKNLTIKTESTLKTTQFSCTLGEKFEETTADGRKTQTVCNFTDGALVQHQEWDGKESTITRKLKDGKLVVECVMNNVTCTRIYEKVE
UniProt Q04323: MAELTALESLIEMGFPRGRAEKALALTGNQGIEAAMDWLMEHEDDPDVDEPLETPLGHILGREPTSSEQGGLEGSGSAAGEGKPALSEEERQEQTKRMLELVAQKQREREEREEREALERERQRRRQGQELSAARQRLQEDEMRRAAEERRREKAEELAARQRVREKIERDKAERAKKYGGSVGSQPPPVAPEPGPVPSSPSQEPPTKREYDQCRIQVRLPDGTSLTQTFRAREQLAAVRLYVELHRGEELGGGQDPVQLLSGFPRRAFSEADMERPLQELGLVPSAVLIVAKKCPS
UniProt P86452: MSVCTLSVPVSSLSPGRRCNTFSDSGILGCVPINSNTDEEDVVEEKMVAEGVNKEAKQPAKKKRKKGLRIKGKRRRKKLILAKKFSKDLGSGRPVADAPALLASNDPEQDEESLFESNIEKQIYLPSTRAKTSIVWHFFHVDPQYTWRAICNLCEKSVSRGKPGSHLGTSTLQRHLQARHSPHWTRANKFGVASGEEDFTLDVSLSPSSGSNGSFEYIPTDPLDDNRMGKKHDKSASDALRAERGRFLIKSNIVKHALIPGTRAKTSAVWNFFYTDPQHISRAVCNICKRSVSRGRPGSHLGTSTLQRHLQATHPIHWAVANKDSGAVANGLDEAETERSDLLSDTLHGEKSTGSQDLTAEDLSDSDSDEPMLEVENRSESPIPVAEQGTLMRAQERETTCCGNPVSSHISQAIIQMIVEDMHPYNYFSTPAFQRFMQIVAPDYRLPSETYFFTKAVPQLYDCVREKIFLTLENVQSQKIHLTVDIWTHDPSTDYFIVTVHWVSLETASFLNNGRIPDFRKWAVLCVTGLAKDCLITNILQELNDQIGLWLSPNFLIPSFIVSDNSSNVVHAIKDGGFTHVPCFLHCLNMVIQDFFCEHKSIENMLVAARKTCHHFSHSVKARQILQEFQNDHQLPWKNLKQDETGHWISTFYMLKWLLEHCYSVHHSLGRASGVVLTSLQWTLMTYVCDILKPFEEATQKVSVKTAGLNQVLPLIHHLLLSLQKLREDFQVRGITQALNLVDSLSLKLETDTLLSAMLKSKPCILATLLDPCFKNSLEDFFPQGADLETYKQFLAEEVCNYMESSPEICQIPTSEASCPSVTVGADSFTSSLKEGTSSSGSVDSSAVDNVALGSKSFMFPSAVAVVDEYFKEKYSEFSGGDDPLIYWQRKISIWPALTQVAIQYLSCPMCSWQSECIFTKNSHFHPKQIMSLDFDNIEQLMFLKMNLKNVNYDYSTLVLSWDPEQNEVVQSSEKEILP
UniProt Q00577: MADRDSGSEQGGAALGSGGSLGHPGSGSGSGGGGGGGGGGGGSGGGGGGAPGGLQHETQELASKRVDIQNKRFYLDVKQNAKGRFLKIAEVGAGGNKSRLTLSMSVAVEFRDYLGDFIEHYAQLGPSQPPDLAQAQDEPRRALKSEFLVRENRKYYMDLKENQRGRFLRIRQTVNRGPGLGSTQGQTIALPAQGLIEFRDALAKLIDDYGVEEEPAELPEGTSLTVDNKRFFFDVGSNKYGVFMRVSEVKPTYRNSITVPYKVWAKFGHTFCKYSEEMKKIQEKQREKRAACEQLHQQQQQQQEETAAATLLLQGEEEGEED
UniProt Q12926, whole entry: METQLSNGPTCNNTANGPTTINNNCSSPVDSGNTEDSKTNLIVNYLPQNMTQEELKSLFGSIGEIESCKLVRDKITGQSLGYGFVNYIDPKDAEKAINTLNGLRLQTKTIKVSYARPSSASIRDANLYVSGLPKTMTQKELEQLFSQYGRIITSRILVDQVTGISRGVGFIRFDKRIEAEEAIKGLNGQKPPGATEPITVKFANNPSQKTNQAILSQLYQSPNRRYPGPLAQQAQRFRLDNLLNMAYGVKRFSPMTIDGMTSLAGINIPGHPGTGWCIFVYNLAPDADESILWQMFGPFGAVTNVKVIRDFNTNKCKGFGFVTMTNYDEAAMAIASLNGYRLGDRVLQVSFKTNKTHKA

Compound in this test: Cc1nc(Nc2ncc(C(=O)Nc3c(C)cccc3Cl)s2)cc(N2CCN(CCO)CC2)n1 [dasatinib]
As to the kind of experiment: log2 fold change of tryptic peptide abundance, ligand vs vehicle (limited proteolysis) (log2 ratio); higher = more trypsin-susceptible (destabilized). The conditions noted are these: ligand concentration: 5 uM; sample: K562 cleared lysate.
Regarding “CAMSAP2 (peptide sequence: LNSSLHFLQQEMQR, peptide start residue: 898) (UniProt Q08AD1)”, the log2 fold change was -0.194. Turning to “RING1 (peptide sequence: VSRPLELCYAPTK, peptide start residue: 391) (UniProt Q06587)”, the log2 fold change is -0.779. Regarding “UniProt Q13023 (peptide sequence: SERASSSEK, peptide start residue: 741)”, the log2 fold change is 0.112.

As for “DST (peptide sequence: GFHSGEDSGLITTAAAR, peptide start residue: 7461) (UniProt Q03001)”, the log2 fold change came out at 0.159. To “KHDRBS1 (peptide sequence: ERVLIPVKQYPK, peptide start residue: 158) (UniProt Q07666)” belongs 0.202. Consider “SCAP (peptide sequence: QLAVRPSTPHTITLQPSSFR, peptide start residue: 477) (UniProt Q12770)”, for which the log2 fold change was 0.216. The same measure for “TRAP1 (peptide sequence: FFIDQSK, peptide start residue: 425) (UniProt Q12931)”: -0.228; for “BCL2L1 (peptide sequence: EAGDEFELR, peptide start residue: 92) (UniProt Q07817)”: 0.0682; for “SP2 (peptide sequence: LVPIKPAPLPLSPGK, peptide start residue: 67) (UniProt Q02086)”: 0.492. As to “UniProt P85299 (peptide sequence: GSGMSDLEGSGGR, peptide start residue: 372)”, the log2 fold change came to 0.433. With “NFATC3 (peptide sequence: FTYTPVLMK, peptide start residue: 695) (UniProt Q12968)”, the log2 fold change worked out at 0.242. “UniProt Q02539 (peptide sequence: ALAAAGYDVEK, peptide start residue: 65)”: the log2 fold change was found to be 0.0354.

With “DLG1 (peptide sequence: DKGEIPDDMGSK, peptide start residue: 666) (UniProt Q12959)”, the log2 fold change is -0.36.

“UniProt P84095 (peptide sequence: HKWHPEVCHHCPDVPILLVGTK, peptide start residue: 95)”: the log2 fold change is -0.324. Take “TLE3 (peptide sequence: TKDLGHNDKSSTPGLK, peptide start residue: 301) (UniProt Q04726)”: the log2 fold change is -0.506.

In the case of “SORD (peptide sequence: VAIEPGAPR, peptide start residue: 92) (UniProt Q00796)”, the log2 fold change is 0.328. In the case of “UniProt Q05397 (peptide sequence: LLNSDLGELINK, peptide start residue: 989)”, the log2 fold change is -0.38. In the case of “XIAP (peptide sequence: SFQNWPDYAHLTPR, peptide start residue: 169) (UniProt P98170)”, the log2 fold change stood at 0.402.

On to “LMAN2 (peptide sequence: NRDHDTFLAVR, peptide start residue: 208) (UniProt Q12907)”, for which the log2 fold change is -0.486. As to “TWF1 (peptide sequence: MLYSSCK, peptide start residue: 270) (UniProt Q12792)”, the log2 fold change was 0.0786.

Turning to “UniProt Q12768 (peptide sequence: IYFSAIAK, peptide start residue: 929)”, the log2 fold change worked out at 0.304. As for “UniProt Q12904 (peptide sequence: AILQATLREEK, peptide start residue: 36)”, the log2 fold change was -0.2. For the target “UniProt P83916 (peptide sequence: ADSDSEDKGEESKPK, peptide start residue: 87)”, the log2 fold change worked out at 0.358. Turning to “DSC2 (peptide sequence: VYLCNQDENHK, peptide start residue: 838) (UniProt Q02487)”, the log2 fold change is -0.528. With “CHD3 (peptide sequence: EKEMVGALVSDGLDRK, peptide start residue: 1973) (UniProt Q12873)”, the log2 fold change turned out to be 0.569. To “AHNAK (peptide sequence: VKGGVDVTLPR, peptide start residue: 583) (UniProt Q09666)” belongs -0.648.

As for “PTPN12 (peptide sequence: PVLHMVSSEQHSADLNR, peptide start residue: 391) (UniProt Q05209)”, the log2 fold change worked out at 0.653. “FOXO4 (peptide sequence: SSSNASSVSTR, peptide start residue: 260) (UniProt P98177)”: the log2 fold change came out at 0.426. The same measure for “FABP5 (peptide sequence: KMGAMAKPDCIITCDGK, peptide start residue: 34) (UniProt Q01469)”: -0.292. Turning to “UBXN1 (peptide sequence: EKAEELAAR, peptide start residue: 153) (UniProt Q04323)”, the log2 fold change came to 0.0565. For “ZBED6 (peptide sequence: GRPGSHLGTSTLQR, peptide start residue: 295) (UniProt P86452)”, the log2 fold change was -0.205.

On to “ARHGAP5 (peptide sequence: TIEAGIGKNPR, peptide start residue: 1061) (UniProt Q13017)”, for which the log2 fold change is -0.163. For “HHEX (peptide sequence: TVNDYTHALLR, peptide start residue: 106) (UniProt Q03014)”, the log2 fold change was -0.129.

On to “PURA (peptide sequence: ALKSEFLVR, peptide start residue: 118) (UniProt Q00577)”, for which the log2 fold change turned out to be 0.231. On to “GALNT2 (peptide sequence: KEDWNEIDPIKK, peptide start residue: 42) (UniProt Q10471)”, for which the log2 fold change was -0.355. As to “TROAP (peptide sequence: SCLTAIHCFHEAR, peptide start residue: 717) (UniProt Q12815)”, the log2 fold change is -0.523. Regarding “ELAVL2 (peptide sequence: AINTLNGLR, peptide start residue: 77) (UniProt Q12926)”, the log2 fold change was -0.0992.

For the origin of these results see the supplement of paper PMC12819154, “High-throughput peptide-centric local stability assay extends protein–ligand identification to membrane proteins, tissues and bacteria” (Nature Structural & Molecular Biology, 2025).
